PubChem BioAssay AID1159508 – Drosophila RNAi Screening Center – 2015
The deposit covers 812 reagents; shown is a part drawn at random. 18 of them (2.2%) count as active. 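Calls include both increased and decreased ATP; roughly one in four reagents has no third replicate value.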 Not all columns of the deposit are shown. No sequences are given here. Not stated in the record: the amount of reagent.

Assay: 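Viability reference data for a dsRNA library against RNA-binding protein genes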
Cells: Drosophila S2R+ cells
Knock-down reagent: long dsRNA against Drosophila genes
Timing: 5 days
Detection: 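Luminescent ATP signal as a proxy for cell fitness after 5 days of RNAi, given as a z-score in each replicate and averaged over replicates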
Reading the numbers: mean ATP z-score and ATP z-score: higher = more total ATP luminescence
Rule for the call: In these data the active calls have mean ATP z-score at about -2 or lower, or at about 2 or higher
Meaning of the calls: active = strong ATP change (up or down); inactive = no strong ATP change

The opening 2 records, to show the layout:
{"Target gene": "wisp", "DRSC id": "DRSC23092", "mean ATP z-score": 0.248, "ATP z-score, replicate 1": -0.0416, "outcome": "inactive"}
{"Target gene": "wisp", "DRSC id": "DRSC25917", "mean ATP z-score": 0.62, "ATP z-score, replicate 1": 0.314, "outcome": "inactive"}

The list itself, from the first entry:
{"Target gene": "wisp", "DRSC id": "DRSC23092", "mean ATP z-score": 0.248, "ATP z-score, replicate 1": -0.0416, "outcome": "inactive"}
{"Target gene": "wisp", "DRSC id": "DRSC25917", "mean ATP z-score": 0.62, "ATP z-score, replicate 1": 0.314, "outcome": "inactive"}
{"Target gene": "CG11109", "DRSC id": "DRSC11633", "mean ATP z-score": 1.17, "ATP z-score, replicate 1": 0.105, "outcome": "inactive"}
{"Target gene": "CG11109", "DRSC id": "DRSC42690", "mean ATP z-score": 0.53, "ATP z-score, replicate 1": -0.101, "outcome": "inactive"}
{"Target gene": "Pop4", "DRSC id": "DRSC10955", "mean ATP z-score": -0.187, "ATP z-score, replicate 1": -0.285, "outcome": "inactive"}
{"Target gene": "Pop4", "DRSC id": "DRSC29825", "mean ATP z-score": 1.7, "ATP z-score, replicate 1": 1.46, "outcome": "inactive"}
{"Target gene": "CG7006", "DRSC id": "DRSC16169", "mean ATP z-score": -0.168, "ATP z-score, replicate 1": -0.455, "outcome": "inactive"}
{"Target gene": "CG7006", "DRSC id": "DRSC36269", "mean ATP z-score": 0.256, "ATP z-score, replicate 1": -0.222, "outcome": "inactive"}
{"Target gene": "DCP2", "DRSC id": "DRSC10597", "mean ATP z-score": 2.24, "ATP z-score, replicate 1": 1.94, "outcome": "active"}
{"Target gene": "DCP2", "DRSC id": "DRSC34890", "mean ATP z-score": 0.537, "ATP z-score, replicate 1": -0.0272, "outcome": "inactive"}
{"Target gene": "srl", "DRSC id": "DRSC29561", "mean ATP z-score": 1.13, "ATP z-score, replicate 1": 0.572, "outcome": "inactive"}
{"Target gene": "srl", "DRSC id": "DRSC34830", "mean ATP z-score": 0.394, "ATP z-score, replicate 1": 0.0513, "outcome": "inactive"}
{"Target gene": "SmF", "DRSC id": "DRSC25054", "mean ATP z-score": -0.156, "ATP z-score, replicate 1": -0.368, "outcome": "inactive"}
{"Target gene": "SmF", "DRSC id": "DRSC31802", "mean ATP z-score": 0.234, "ATP z-score, replicate 1": -0.0737, "outcome": "inactive"}
